# Results: the supplement of paper PMC5949888
# Most values lie at the floor of the assay. Slopes are relative: functional sequences can read slightly below zero.
# Test system: Saccharomyces cerevisiae PS128 hsf1 delta, HSF1(1-493) fusion
# Assay: growth estimate (transactivation domain function in HSF1 fusion, heat-shock survival) (a.u. (slope of normalised read count over time)); higher = stronger growth at 37°C, i.e. more transactivation activity
# Conditions: library: random library
# Method: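 Random 60-nt DNA library encoding peptides of up to 20 aa, fused to the C-terminus of yeast HSF1 residues 1-493 (C-terminal TAD deleted) and expressed from the native HSF1 promoter on a CEN plasmid in hsf1-deleted S. cerevisiae PS128. Cells were selected at 37°C on -trp 5-FOA plates for 0, 2, 4, 6 and 8 days and amplicons were sequenced. Growth estimate is the slope of a robust linear fit of total-sum-normalised read counts (normalised to the first time point) over time, using at least 2 replicates. Sequences are classed functional (TAD activity) above a threshold of -0.13, set from stop-codon control sequences.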
row,Substance,growth estimate
1,DLTLFE,< -0.25
2,DLTYGNNSLPKVEYVPCR,< -0.25
3,DLVGVSRIGGGPPWR,< -0.25
4,DLVIVTRITRTS,< -0.25
5,DLVRLPPV,< -0.25
6,DLVVASPT,< -0.25
7,DLWFARTGLLRALRSGERSK,< -0.25
8,DLYGKCGGYDGFRATSLR,< -0.25
9,DMAICERTDPQGGFLQPLKR,< -0.25
10,DMFSSRRLSYYERRPKRRDV,0.246
11,DMG,< -0.25
12,DMHTNHLKLYDSTRLPSSTG,< -0.25
13,DMKHEGAG,< -0.25
14,DMLIG,< -0.25
15,DMLSTSSHDAPVGFRNQVNV,< -0.25
16,DMPDFDCVVPTDE,< -0.25
17,DMRSPGRECHGG,< -0.25
18,DMRWSSC,< -0.25
19,DMVCNFPQGTR,< -0.25
20,DMYAYWSGTTLGLAS,< -0.25
21,DNAGFGGI,< -0.25
22,DNANIRRDGVRPSMRRSRPA,< -0.25
23,DNERICLRLVV,< -0.25
24,DNLFILQNGYVYEV,-0.243
25,DNLRRTSPEVSL,< -0.25

# Look-ups from the entries so far:
# growth estimate, DMG reads < -0.25
# growth estimate, DLWFARTGLLRALRSGERSK reads < -0.25
# growth estimate, DLVGVSRIGGGPPWR reads < -0.25

# Later entries:

row,Substance,growth estimate
1,DNNGILYLNTCLRPRERRSD,< -0.25
2,DNNTALVCPFKSHLYVADSR,-0.244
3,DNPAYYSITLGAGPVRVRIC,< -0.25
4,DNQLRLCEWPLPVL,< -0.25
5,DNQVYENEDYEHHEH,< -0.25
6,DNRLFTGAVAGAGGNASFT,< -0.25
7,DNSPMNLRVRE,< -0.25
8,DNTNVDYCTEEG,-0.245
9,DPGPGHNDRACGLGRTRHLT,-0.246
10,DPGRMGNKRSYPYSALLRVV,< -0.25
11,DPGTISGHTASLLSRKYLS,< -0.25
12,DPHKHLTCSLPASSLNDQRG,< -0.25
13,DPHLTQWLETLNSKLKVICK,< -0.25
14,DPKSSRHGFRSVSFCTCVDS,< -0.25
15,DPLVCE,< -0.25
16,DPPDLLVTRDF,< -0.25
17,DPPF,< -0.25
18,DPPSTPLSHSLTP,< -0.25
19,DPRGYSCAYIFTSKRKMLYQ,< -0.25
20,DPS,< -0.25
21,DPT,< -0.25
22,DPVLTKQPRGLVPR,< -0.25
23,DPVTRSTRRNRFLGLGSSCI,< -0.25
24,DPYARASGCRRSGTNLSAKI,< -0.25
25,DPYHRMGASNGPGARPTL,< -0.25

row,Substance,growth estimate
1,DPYIWRADRGCDHEDHFRFN,< -0.25
2,DPYREWHGRTV,< -0.25
3,DQFQGFDKARLSTINLYGIL,< -0.25
4,DQHCHLAAEGEA,< -0.25
5,DQKEPFGAIIRDQNP,< -0.25
6,DQKNTSRAGPWNDHAPRDER,< -0.25
7,DQLETSSFNALF,-0.245
8,DQLPRMLEVE,< -0.25
9,DQLRQGELRPWRRSSSHIGL,< -0.25
10,DQNHRHRQYQLGFSF,< -0.25
11,DQNQRE,< -0.25
12,DQNSPVY,< -0.25
13,DQRPV,< -0.25
14,DQRVQERRKAQDWRL,< -0.25
15,DQSKVVGSVQVCQ,< -0.25
16,DQWACWAP,< -0.25
17,DRAARRLPTRAYCGNP,< -0.25
18,DRAQKNDVPWDGQRGWT,< -0.25
19,DRARSVL,< -0.25
20,DRC,< -0.25
21,DRCASRFETDSTDWSVSRGM,< -0.25
22,DRCIRVL,< -0.25
23,DRFP,< -0.25
24,DRGAVQGKRTPARMDFPIEP,< -0.25
25,DRGCK,< -0.25

row,Substance,growth estimate
1,DRGWSLVAIA,< -0.25
2,DRIKSQVGLWMARRE,< -0.25
3,DRIRYRAAILEIFQKLCPVT,< -0.25
4,DRISDARHWLSYKPPLRRPA,< -0.25
5,DRKH,< -0.25
6,DRLELG,< -0.25
7,DRLFRDAYQG,< -0.25
8,DRLFRTWQVALTLKGWGCST,< -0.25
9,DRLTKDLTTSPEVVLLPGFD,< -0.25
10,DRNGRHRWDVIQYTT,< -0.25
11,DRPSY,< -0.25
12,DRQDISSRPSLSCI,< -0.25
13,DRQRCLIESASEYERDTAHG,< -0.25
14,DRRAGRVSVLSNDGGLLPAS,< -0.25
15,DRRGHVCRPESGSK,< -0.25
16,DRRNW,< -0.25
17,DRRYVQIEALRRGLHDIR,< -0.25
18,DRSVKELNDLYPIR,< -0.25
19,DRSWWAI,0.246
20,DRTRTDGTVGILENVVKSLG,< -0.25
21,DRVHRQ,< -0.25
22,DRVIVWA,< -0.25
23,DRWYIQSPRAPIRTGCHSRS,< -0.25
24,DSAARGGFLPSGLKRVRPLG,< -0.25
25,DSALRTDS,< -0.25

row,Substance,growth estimate
1,DSASFLQTMW,19.8
2,DSASGSSGISNGALRSLLYW,< -0.25
3,DSATRQPLTRVVWLKSLTIT,< -0.25
4,DSCGCPDGIELGSVSPRVFT,< -0.25
5,DSCIRRHMSLEGWSVLRVTS,< -0.25
6,DSGGIDKSIHDPQNCLPGK,< -0.25
7,DSINVRIRHAGRGRGTRSER,< -0.25
8,DSLAPRGSFVPGTELTHTAP,< -0.25
9,DSLPTSTR,< -0.25
10,DSMDRGSVHTTLCFGCAMKS,-0.245
11,DSNL,< -0.25
12,DSQRTLLVRCYSVAVQ,< -0.25
13,DSQSSSARVWLDLNQKQSCH,< -0.25
14,DSQWPVVSPNFIVMYRAV,< -0.25
15,DSRASYVGHVDRRLLIRWGP,< -0.25
16,DSRDSGYSRQSVGQFGWDRS,< -0.25
17,DSRTMGSTLLG,< -0.25
18,DSTHWAISEF,< -0.25
19,DSVDRCPSLWGTINLDRVHR,< -0.25
20,DSVKLADTMN,< -0.25
21,DSYDFLDRYSFQGCGSATSR,-0.245
22,DSYWKCSPHGRLFFFSPPRA,-0.131
23,DTAASTSIDHRGEGNPAGAY,< -0.25
24,DTAGSRVC,< -0.25
25,DTCQVPAHQRRFMAALYGAG,< -0.25

row,Substance,growth estimate
1,DTDAC,< -0.25
2,DTDGRCGSRRRGWTCNRDEM,< -0.25
3,DTGNTDIARRGNRFQAGTLY,< -0.25
4,DTGRVLHRLGSCGASMNGEH,< -0.25
5,DTKCVS,< -0.25
6,DTKVGGHCFWF,-0.175
7,DTLV,< -0.25
8,DTLVDAVFVRLRS,< -0.25
9,DTP,< -0.25
10,DTQLLHQDGCPSWWDIRVWG,< -0.25
11,DTQLRMWSCLVDCAISIAGV,< -0.25
12,DTRTNEC,-0.243
13,DTRVCQN,< -0.25
14,DTSHAATLAFYVMRNRPHTA,< -0.25
15,DTTPRRSRLPG,< -0.25
16,DTTSQRLSTPYTLPEATLPQ,-0.237
17,DVAL,< -0.25
18,DVALWWTAFRMWNGN,< -0.25
19,DVAMYFNLLGCSRHSEMIDD,< -0.25
20,DVC,< -0.25
21,DVCASRRAECWSFRVAHTDF,< -0.25
22,DVDYRPGQGSPTMSVRGPSP,< -0.25
23,DVEGGFVEIDAVGLIEIRVC,< -0.25
24,DVELFINPLLISAVWLLLGG,< -0.25
25,DVHSLRHFAATFSRTGVHIC,< -0.25

# Reformatted with tabs: entries from further up.
row	Substance	growth estimate
8	DLYGKCGGYDGFRATSLR	< -0.25
11	DSNL	< -0.25
18	DVALWWTAFRMWNGN	< -0.25

# Next part.

row,Substance,growth estimate
1,DVLWLSLPPGIL,< -0.25
2,DVR,< -0.25
3,DVRMYADLSSNDQWR,< -0.25
4,DVRVVGVLRRRRNGIRTLYL,< -0.25
5,DVVHASHPSPRGSLGQRINR,< -0.25
6,DVVITKYRVIF,< -0.25
7,DVVNESSPREISSYRARRIT,< -0.25
8,DVVQSFAPWGCDFSGVGSGA,-0.225
9,DVVVWHLRETRHTFELGPWG,< -0.25
10,DVYCTLRADHP,< -0.25
11,DWFPYVAGDMAQRWAVVCLA,< -0.25
12,DWGDLVYVLATCISQTSSAI,< -0.25
13,DWGGNRFPIQATSALLVEPT,< -0.25
14,DWLNRTTP,< -0.25
15,DWNF,< -0.25
16,DWPTMDDTRESPR,< -0.25
17,DWTQGPGPSVPSVTPVCLVA,< -0.25
18,DWTRIGGPISKGRR,< -0.25
19,DYAA,-0.189
20,DYASGWEHTDVCATRCG,< -0.25
21,DYCERRCLNRMETN,< -0.25
22,DYCPP,< -0.25
23,DYCSLKLLRAFRVTRIAQVG,< -0.25
24,DYGYSG,< -0.25
25,DYRVD,< -0.25

row,Substance,growth estimate
1,DYSCGFKR,< -0.25
2,DYVNLVKGTTHLLRWQLRKS,< -0.25
3,EAGICVGNPALPQVVLWYKC,< -0.25
4,EAGIKGVLWSRNRVTPPVEA,< -0.25
5,EAIEWQPTDECSPKEVGGPD,< -0.25
6,EAKDEKGFDTNAFCSKLWKA,< -0.25
7,EALESSRVLPS,< -0.25
8,EAPLRTYYKVP,< -0.25
9,EAQFGICRQGSV,< -0.25
10,EARRLPGTKGRTLLSAWVQE,< -0.25
11,EATGRDNPALARSPKMRIRQ,< -0.25
12,EATLADLSSTKVTR,< -0.25
13,EAVFVNPAKE,< -0.25
14,EAVLASTWSGRYFVND,< -0.25
15,ECCELSNRE,< -0.25
16,ECCERVCGVHIPDAKVSKSH,< -0.25
17,ECFAK,< -0.25
18,ECGSASSVG,< -0.25
19,ECM,< -0.25
